Data as given in paper PMC9149245.
No constants are given. Whether binding was seen depends on the method and setting. For some assays here: In cells and extracts the contact can be indirect. Some entries that bind do so weakly or less than the wild type. Where a sequence is shown, tags or fusion partners need not be part of it.

Sequences of proteins named here, by UniProt entry; tags and fusion partners are left off.
UniProt Q06609: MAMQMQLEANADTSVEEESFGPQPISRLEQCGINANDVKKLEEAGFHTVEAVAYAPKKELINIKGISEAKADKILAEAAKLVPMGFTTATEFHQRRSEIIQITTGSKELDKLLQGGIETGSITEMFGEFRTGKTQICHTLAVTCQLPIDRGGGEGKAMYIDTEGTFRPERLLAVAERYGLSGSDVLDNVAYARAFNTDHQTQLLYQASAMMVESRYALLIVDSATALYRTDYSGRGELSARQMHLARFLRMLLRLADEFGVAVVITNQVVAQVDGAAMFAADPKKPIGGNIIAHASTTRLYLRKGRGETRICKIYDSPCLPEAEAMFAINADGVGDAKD

T1: eGFP-tagged RAD51AP1 (human) (UniProt Q96B01)
T1 sequence: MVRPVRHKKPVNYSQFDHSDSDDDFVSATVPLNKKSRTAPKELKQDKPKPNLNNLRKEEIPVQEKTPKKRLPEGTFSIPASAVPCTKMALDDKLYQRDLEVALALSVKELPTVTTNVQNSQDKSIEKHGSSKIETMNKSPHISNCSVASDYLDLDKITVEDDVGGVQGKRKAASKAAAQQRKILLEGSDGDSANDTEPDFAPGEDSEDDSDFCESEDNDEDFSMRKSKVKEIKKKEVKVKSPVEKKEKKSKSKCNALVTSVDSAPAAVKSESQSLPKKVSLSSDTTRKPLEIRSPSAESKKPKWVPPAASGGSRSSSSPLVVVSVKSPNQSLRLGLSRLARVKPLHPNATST

T2: FLAG-tagged RAD51AP1 (human) (UniProt Q96B01)
T2 sequence: T1 sequence

T3: (His)6-RAD51AP1-FLAG (human) (UniProt Q96B01)
T3 sequence: T1 sequence

B1: RAD54L (endogenous) (protein, UniProt Q92698 1-747)
chain: MRRSLAPSQLAKRKPEGRSCDDEDWQPGLVTPRKRKSSSETQIQECFLSPFRKPLSQLTNQPPCLDSSQHEAFIRSILSKPFKVPIPNYQGPLGSRALGLKRAGVRRALHDPLEKDALVLYEPPPLSAHDQLKLDKEKLPVHVVVDPILSKVLRPHQREGVKFLWECVTSRRIPGSHGCIMADEMGLGKTLQCITLMWTLLRQSPECKPEIDKAVVVSPSSLVKNWYNEVGKWLGGRIQPLAIDGGSKDEIDQKLEGFMNQRGARVSSPILIISYETFRLHVGVLQKGSVGLVICDEGHRLKNSENQTYQALDSLNTSRRVLISGTPIQNDLLEYFSLVHFVNSGILGTAHEFKKHFELPILKGRDAAASEADRQLGEERLRELTSIVNRCLIRRTSDILSKYLPVKIEQVVCCRLTPLQTELYKRFLRQAKPAEELLEGKMSVSSLSSITSLKKLCNHPALIYDKCVEEEDGFVGALDLFPPGYSSKALEPQLSGKMLVLDYILAVTRSRSSDKVVLVSNYTQTLDLFEKLCRARRYLYVRLDGTMSIKKRAKVVERFNSPSSPDFVFMLSSKAGGCGLNLIGANRLVMFDPDWNPANDEQAMARVWRDGQKKTCYIYRLLSAGTIEEKIFQRQSHKKALSSCVVDEEQDVERHFSLGELKELFILDEASLSDTHDRLHCRRCVNSRQIRPPPDGSDCTSDLAGWNHCTDKWGLRDEVLQAAWDAASTAITFVFHQRSHEEQRGLR
B2: RAD54B (endogenous) (protein, UniProt Q9Y620 1-910)
chain: MRRSAAPSQLQGNSFKKPKFIPPGRSNPGLNEEITKLNPDIKLFEGVAINNTFLPSQNDLRICSLNLPSEESTREINNRDNCSGKYCFEAPTLATLDPPHTVHSAPKEVAVSKEQEEKSDSLVKYFSVVWCKPSKKKHKKWEGDAVLIVKGKSFILKNLEGKDIGRGIGYKFKELEKIEEGQTLMICGKEIEVMGVISPDDFSSGRCFQLGGGSTAISHSSQVARKCFSNPFKSVCKPSSKENRQNDFQNCKPRHDPYTPNSLVMPRPDKNHQWVFNKNCFPLVDVVIDPYLVYHLRPHQKEGIIFLYECVMGMRMNGRCGAILADEMGLGKTLQCISLIWTLQCQGPYGGKPVIKKTLIVTPGSLVNNWKKEFQKWLGSERIKIFTVDQDHKVEEFIKSIFYSVLIISYEMLLRSLDQIKNIKFDLLICDEGHRLKNSAIKTTTALISLSCEKRIILTGTPIQNDLQEFFALIDFVNPGILGSLSSYRKIYEEPIILSREPSASEEEKELGERRAAELTCLTGLFILRRTQEIINKYLPPKIENVVFCRPGALQIELYRKLLNSQVVRFCLQGLLENSPHLICIGALKKLCNHPCLLFNSIKEKECSSTCDKNEEKSLYKGLLSVFPADYNPLLFTEKESGKLQVLSKLLAVIHELRPTEKVVLVSNYTQTLNILQEVCKRHGYAYTRLDGQTPISQRQQIVDGFNSQHSSFFIFLLSSKAGGVGLNLIGGSHLILYDIDWNPATDIQAMSRVWRDGQKYPVHIYRLLTTGTIEEKIYQRQISKQGLCGAVVDLTKTSEHIQFSVEELKNLFTLHESSDCVTHDLLDCECTGEEVHTGDSLEKFIVSRDCQLGPHHQKSNSLKPLSMSQLKQWKHFSGDHLNLTDPFLERITENVSFIFQNITTQATGT
B3: RAD54B (purified recombinant) (protein, UniProt Q9Y620 1-910)
chain: B2 chain

Key:
[1] = biological target: T1, eGFP-tagged RAD51AP1 (human); test: co-IP; GFP-Trap dynabeads hold the eGFP protein from lysates of transfected HeLa KO cells; 50 mM Tris-HCl pH 7.5, 150 mM NaCl, 0.1% NP-40, DNase I, 4°C, 1 h; Western blot; cells untreated, or 4 and 20 h after 2 h of 0.5 µM MMC, or after 1 day in 10 µM olaparib
[2] = biological target: T2, FLAG-tagged RAD51AP1 (human); test: co-IP; anti-RAD51AP1 complexes of RAD51AP1 KO cells stably expressing FLAG-RAD51AP1; unperturbed conditions; Western blot
[3] = biological target: T3, (His)6-RAD51AP1-FLAG (human); test: pull-down; (His)6-RAD51AP1-FLAG (100 nM) on anti-FLAG M2 affinity resin, RAD54B (100 nM) added; 50 mM Tris-HCl pH 7.5, 150 mM NaCl, 0.1% Triton X-100, 100 µg/ml BSA, DNase I, 4°C; eluted with 3x FLAG peptide; Western blot; both purified

Row | Molecule | binding [1] | binding [2] | binding [3]
1 | RAD51 (endogenous) (from UniProt Q06609 1-339) | binds | – | –
2 | B1 | binds | binds | –
3 | B2 | binds | – | –
4 | B3 | – | – | binds
